Data taken from publication doi:10.1101/2020.05.13.093104.
No constants are given. Whether binding was seen depends on the method and setting. In cells and extracts the contact can be indirect. Some binding calls cover weakened binding; strength is not graded here.

Biological target: T1, Ha2-Caf1 (CCR4-NOT complex 3'-5' exonuclease Caf1) (S. cerevisiae) (UniProt P39008)
T1 sequence: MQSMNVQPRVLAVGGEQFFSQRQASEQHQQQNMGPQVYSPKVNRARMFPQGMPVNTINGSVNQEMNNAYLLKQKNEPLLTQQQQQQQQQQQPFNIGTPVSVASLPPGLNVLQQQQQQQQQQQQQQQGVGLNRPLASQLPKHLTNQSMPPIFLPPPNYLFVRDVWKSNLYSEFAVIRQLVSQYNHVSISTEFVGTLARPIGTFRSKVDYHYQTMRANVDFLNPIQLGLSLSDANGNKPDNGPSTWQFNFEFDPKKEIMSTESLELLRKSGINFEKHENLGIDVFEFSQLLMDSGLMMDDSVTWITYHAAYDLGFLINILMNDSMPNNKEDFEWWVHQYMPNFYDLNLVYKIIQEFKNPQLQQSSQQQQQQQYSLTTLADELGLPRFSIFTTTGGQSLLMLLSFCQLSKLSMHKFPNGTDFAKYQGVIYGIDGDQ
Experiment: pull-down

- binding: binds
Substance: recombinant 6-His linear tetra ubiquitin (from UniProt P0CG63 1-76; P0CG63 1-76; P0CG63 1-76; P0CG63 1-76)
